The text below walks through data of the supplement of paper PMC12067093, “Discovery and optimisation of a covalent ligand for TRIM25 and its application to targeted protein ubiquitination” (Chemical Science, 2025).

Amino acid sequences for entries named in this document (tags omitted). A change or cut given only in a name is not applied to a line headed by its entry.
UniProt O75691: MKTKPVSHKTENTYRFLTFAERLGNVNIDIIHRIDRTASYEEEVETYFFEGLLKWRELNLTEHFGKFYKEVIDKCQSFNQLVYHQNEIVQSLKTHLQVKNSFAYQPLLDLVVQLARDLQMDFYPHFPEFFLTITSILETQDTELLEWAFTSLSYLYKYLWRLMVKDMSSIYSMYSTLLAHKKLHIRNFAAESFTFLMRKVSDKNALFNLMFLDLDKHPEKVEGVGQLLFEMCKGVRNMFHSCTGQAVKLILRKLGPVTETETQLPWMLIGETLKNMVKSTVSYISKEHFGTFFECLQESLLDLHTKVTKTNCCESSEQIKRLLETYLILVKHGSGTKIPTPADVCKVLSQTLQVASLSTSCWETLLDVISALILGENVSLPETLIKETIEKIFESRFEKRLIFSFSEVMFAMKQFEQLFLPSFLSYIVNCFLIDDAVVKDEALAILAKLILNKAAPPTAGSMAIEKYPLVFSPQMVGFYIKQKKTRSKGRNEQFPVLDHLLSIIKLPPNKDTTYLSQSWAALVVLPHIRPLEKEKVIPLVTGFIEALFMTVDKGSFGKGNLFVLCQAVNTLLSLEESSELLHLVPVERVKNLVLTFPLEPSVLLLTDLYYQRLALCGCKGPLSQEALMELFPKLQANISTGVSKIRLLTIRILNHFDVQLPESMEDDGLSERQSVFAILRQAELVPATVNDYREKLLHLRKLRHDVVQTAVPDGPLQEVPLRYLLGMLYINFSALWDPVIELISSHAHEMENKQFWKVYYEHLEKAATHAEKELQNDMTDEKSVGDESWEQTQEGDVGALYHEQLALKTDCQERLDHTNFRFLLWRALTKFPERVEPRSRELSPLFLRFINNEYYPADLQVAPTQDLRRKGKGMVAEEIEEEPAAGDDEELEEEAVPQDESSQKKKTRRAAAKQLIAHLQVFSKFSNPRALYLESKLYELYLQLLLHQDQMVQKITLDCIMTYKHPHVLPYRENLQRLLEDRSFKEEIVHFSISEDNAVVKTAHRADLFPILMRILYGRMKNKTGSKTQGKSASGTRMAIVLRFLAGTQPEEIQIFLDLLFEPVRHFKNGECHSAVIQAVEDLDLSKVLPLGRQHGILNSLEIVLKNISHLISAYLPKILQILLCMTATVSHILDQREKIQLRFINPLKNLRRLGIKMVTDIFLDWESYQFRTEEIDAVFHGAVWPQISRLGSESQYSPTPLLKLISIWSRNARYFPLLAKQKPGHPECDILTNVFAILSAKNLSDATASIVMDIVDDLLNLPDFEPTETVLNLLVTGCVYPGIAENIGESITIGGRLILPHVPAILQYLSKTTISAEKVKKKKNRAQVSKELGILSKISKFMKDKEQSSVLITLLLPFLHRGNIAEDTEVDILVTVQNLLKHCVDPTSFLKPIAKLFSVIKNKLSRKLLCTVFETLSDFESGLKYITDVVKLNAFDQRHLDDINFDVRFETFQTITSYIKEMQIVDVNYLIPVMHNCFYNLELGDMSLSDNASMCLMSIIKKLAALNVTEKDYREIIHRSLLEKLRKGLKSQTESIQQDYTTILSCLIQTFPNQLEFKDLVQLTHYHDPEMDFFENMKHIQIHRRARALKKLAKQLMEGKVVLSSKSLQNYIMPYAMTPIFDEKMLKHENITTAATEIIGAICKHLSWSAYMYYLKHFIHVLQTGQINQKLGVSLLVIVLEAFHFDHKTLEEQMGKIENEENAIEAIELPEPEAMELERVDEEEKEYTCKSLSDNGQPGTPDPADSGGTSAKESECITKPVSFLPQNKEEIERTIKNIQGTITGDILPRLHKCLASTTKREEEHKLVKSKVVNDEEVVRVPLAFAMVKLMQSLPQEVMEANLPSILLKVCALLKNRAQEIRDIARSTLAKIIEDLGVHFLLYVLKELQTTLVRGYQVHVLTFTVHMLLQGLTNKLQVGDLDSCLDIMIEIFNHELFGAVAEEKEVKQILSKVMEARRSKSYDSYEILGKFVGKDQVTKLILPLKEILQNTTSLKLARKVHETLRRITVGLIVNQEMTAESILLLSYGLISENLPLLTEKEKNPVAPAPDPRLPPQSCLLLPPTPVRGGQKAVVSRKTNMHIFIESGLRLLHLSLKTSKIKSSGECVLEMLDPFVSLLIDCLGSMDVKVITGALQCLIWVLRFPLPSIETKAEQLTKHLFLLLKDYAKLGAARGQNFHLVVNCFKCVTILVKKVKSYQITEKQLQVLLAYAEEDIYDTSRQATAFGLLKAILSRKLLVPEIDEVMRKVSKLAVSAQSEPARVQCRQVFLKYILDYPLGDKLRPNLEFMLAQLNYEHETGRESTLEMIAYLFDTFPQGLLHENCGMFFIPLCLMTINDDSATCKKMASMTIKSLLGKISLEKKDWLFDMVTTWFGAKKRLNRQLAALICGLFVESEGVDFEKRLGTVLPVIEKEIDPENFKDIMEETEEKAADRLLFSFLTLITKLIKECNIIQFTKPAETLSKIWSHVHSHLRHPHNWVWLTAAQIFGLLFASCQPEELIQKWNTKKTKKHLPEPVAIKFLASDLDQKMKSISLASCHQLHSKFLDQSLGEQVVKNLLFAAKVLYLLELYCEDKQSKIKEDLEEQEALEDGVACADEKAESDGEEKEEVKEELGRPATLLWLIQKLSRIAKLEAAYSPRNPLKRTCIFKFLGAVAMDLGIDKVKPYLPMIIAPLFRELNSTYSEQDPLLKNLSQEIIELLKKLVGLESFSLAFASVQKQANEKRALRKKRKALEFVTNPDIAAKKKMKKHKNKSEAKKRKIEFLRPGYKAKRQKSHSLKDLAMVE
UniProt Q14119: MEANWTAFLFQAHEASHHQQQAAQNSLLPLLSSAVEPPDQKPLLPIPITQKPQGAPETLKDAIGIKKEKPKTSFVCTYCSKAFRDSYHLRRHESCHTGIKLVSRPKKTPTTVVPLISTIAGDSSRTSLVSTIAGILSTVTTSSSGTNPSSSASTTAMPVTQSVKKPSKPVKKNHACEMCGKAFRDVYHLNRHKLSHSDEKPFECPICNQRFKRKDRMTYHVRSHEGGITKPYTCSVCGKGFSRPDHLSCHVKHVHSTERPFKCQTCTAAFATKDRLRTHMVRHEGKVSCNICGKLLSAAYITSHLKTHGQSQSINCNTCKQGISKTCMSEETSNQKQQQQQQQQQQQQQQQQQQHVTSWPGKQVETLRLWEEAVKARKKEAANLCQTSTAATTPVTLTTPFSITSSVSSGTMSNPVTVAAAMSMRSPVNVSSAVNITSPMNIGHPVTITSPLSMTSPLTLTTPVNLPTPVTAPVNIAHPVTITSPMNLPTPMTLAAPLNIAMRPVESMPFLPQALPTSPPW
UniProt P55072, whole entry, looked up: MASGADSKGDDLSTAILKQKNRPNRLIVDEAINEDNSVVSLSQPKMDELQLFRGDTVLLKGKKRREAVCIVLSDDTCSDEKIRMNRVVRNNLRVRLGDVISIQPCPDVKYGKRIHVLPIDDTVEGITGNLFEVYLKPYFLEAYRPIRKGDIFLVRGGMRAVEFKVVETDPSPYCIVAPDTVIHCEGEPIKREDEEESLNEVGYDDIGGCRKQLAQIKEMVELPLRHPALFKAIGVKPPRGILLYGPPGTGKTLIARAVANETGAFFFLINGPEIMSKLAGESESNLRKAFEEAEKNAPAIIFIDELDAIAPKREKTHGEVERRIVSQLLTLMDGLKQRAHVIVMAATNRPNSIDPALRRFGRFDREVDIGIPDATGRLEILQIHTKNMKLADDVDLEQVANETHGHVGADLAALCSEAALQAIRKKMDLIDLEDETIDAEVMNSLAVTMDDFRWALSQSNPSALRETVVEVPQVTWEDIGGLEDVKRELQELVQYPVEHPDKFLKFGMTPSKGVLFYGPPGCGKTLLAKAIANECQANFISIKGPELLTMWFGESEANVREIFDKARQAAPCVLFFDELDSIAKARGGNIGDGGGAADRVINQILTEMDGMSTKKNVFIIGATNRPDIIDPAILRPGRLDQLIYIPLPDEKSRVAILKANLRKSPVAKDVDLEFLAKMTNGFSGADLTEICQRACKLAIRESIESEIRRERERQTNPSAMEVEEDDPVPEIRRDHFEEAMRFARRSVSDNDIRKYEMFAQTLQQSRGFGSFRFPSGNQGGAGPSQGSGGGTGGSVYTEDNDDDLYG
UniProt Q96JC1: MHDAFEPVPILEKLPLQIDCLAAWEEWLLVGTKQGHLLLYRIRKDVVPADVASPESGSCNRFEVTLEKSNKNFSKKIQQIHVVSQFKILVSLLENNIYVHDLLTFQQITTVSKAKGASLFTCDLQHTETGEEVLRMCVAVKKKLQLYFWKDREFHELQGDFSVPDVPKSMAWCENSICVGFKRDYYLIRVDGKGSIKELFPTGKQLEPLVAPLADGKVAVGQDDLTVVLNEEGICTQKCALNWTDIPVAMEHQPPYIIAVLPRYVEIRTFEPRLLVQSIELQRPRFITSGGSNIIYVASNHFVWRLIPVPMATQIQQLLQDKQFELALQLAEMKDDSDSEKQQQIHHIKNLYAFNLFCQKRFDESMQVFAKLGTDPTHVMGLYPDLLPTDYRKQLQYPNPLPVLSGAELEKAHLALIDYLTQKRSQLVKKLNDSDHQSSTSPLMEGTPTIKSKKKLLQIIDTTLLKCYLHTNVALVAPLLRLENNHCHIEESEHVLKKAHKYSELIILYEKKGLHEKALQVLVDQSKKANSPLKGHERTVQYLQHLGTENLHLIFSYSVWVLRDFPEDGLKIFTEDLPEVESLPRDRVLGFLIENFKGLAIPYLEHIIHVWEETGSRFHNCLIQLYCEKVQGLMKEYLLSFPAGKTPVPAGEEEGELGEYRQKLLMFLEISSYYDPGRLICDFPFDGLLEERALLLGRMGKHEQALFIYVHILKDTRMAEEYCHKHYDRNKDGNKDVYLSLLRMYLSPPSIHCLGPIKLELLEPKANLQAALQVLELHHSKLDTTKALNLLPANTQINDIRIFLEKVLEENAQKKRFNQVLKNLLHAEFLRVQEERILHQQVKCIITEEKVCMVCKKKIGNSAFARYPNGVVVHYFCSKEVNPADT
UniProt Q99536: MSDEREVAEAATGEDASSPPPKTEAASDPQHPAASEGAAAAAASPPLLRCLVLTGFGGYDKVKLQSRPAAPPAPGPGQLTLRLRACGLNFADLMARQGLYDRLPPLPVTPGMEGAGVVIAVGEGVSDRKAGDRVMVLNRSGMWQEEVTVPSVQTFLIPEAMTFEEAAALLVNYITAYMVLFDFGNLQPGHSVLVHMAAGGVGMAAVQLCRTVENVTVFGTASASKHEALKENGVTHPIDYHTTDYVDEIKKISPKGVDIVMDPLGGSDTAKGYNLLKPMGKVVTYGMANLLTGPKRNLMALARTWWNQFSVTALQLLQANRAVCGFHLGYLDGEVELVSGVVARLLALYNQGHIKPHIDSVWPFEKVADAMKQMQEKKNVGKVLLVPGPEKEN
UniProt Q9NYH9: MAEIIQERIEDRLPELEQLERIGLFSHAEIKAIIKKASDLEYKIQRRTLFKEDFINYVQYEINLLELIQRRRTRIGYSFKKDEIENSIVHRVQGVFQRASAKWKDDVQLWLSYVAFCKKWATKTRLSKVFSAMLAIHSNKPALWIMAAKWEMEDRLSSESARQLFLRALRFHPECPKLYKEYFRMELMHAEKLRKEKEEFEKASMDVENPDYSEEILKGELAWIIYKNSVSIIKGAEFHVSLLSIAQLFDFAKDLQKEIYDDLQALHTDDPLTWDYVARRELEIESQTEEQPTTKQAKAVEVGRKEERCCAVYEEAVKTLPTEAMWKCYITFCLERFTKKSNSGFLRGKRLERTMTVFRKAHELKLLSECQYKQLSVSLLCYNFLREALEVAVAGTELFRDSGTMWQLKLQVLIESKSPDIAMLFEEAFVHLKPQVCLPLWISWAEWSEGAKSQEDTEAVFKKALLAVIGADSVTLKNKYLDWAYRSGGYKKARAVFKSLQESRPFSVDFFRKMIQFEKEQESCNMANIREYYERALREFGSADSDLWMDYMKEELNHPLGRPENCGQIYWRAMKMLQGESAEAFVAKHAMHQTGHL

The other results are listed elsewhere or left out.
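Further: competitive profiling in live THP-1 cells: cysteine peptides tagged with an iodoacetamide desthiobiotin (IA-DTB) probe, intensity after compound treatment relative to DMSO-treated cells.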

Compound in the assay: Cc1cc(ccc1-c1ccccc1)C(=O)N1CCCN(CC1)C(=O)CCl [compound 10]
Kind of assay: probe-labelled cysteine peptide fold change vs DMSO (competition) (log2 fold change); higher = less target engagement (more negative = stronger competition). The note with it: 50 µM; THP-1; incubation time: 4 h.
Turning to “VCPIP1_Q96JH7_160_DMNQGELFDCALLGDR (UniProt Q96JH7)”, the “probe-labelled cysteine peptide fold change” value is -0.29. As for “UTP20_O75691_295_EHFGTFFECLQESLLDLHTK (UniProt O75691)”, the “probe-labelled cysteine peptide fold change” value is 0.268. As to “VEZF1_Q14119_327_TCMSEETSNQK (UniProt Q14119)”, the “probe-labelled cysteine peptide fold change” value was -0.523.

Turning to “VCP_P55072_174_VVETDPSPYCIVAPDTVIHCEGEPIKR (UniProt P55072)”, the “probe-labelled cysteine peptide fold change” value worked out at 0.0887. In the case of “VPS39_Q96JC1_681_LICDFPFDGLLEER (UniProt Q96JC1)”, the “probe-labelled cysteine peptide fold change” value is -0.133.

Turning to “VAT1_Q99536_50_CLVLTGFGGYDK (UniProt Q99536)”, the “probe-labelled cysteine peptide fold change” value was -0.0328. Take “UTP20_O75691_616_LALCGCK (UniProt O75691)”: the “probe-labelled cysteine peptide fold change” value was -0.0191. Turning to “UTP6_Q9NYH9_524_EQESCNMANIR (UniProt Q9NYH9)”, the “probe-labelled cysteine peptide fold change” value was -0.0741. Take “VLDLR_P98155_367_ECHINECLVNNGGCSHICK (UniProt P98155)”: the “probe-labelled cysteine peptide fold change” value was -0.17.
